# At least one compound was matched to its structure with a doubt left.
# Tested on: NG108-15 neurite cells
# Experiment: AT2 Receptor Neurite Outgrowth Assay
# Type: cell-based
# Details: NG108-15 cells, in the presence of angiotensin II 0.1 μM, compound 0.003-10 μM
# Description: The general methodology of Wallinder (2008) and references cited therein was used to assess the effect of the compounds of the present invention on neurite outgrowth. The assay was adapted for high content screening.
# EMA1087 is a known AT2 receptor agonist described as “compound 21” in Wan et al. 2004. PD-123,319 is a known, commercially available AT2 receptor antagonist. The results were analyzed by immunofluorescence quantitative analysis. Neurite outgrowth was quantified with neurite average length using Cellomics software. Results are expressed as the mean±SEM, each conducted in triplicate. Statistical significance, compared with Ang II control: *p<0.05, **p<0.01, and ***p<0.001. NS: no significant difference. ND: not determined. FIGS. 1 to 5 show neurite outgrowth was inhibited by the AT2 receptor antagonists, PD-126,055 and compounds 6, 15, 21 and 28.
structure (smiles),measurement,value
O=C(O)[C@@H]1C[C@H](OCCCc2ccccc2)CN1C(=O)C(c1ccccc1)c1ccccc1 [Compound 6],neurite outgrowth (neurite average length),inhibited
